Reference: publication PMC6271703, “Absorbability, Mechanism and Structure-Property Relationship of Three Phenolic Acids from the Flowers of Trollius chinensis” (Molecules, 2014)

Assay: Caco-2 cell monolayer transport experiment
Type: in vitro ADME
Conditions: human, standard markers added to the AP side, model validation, read-out: Papp of reference controls
Protocol: To facilitate the cells’ differentiation and formation of a confluent monolayer, Caco-2 cells were seeded at a density of 1.0 × 10^5 cells/cm^2 on a 12-well Transwell insert filter. The inserts were fed with culture medium at 2 days intervals in the first week, and then at daily intervals for the AP side and 2 days intervals for the BL side until they were used for the transport experiment 21 days after seeding. The AP and BL sides contained 0.5 mL and 1.5 mL of culture medium, respectively. The integrity and viability of the cell monolayers were evaluated by measuring TEER values in culture medium at 37 °C using Millicell®-ERS system (Millipore Corp., Bedford, MA, USA) and transport experiment using standard compounds, i.e., propranolol and atenolol which were well-known control substances for high and poor transcellular transport markers, respectively. […]
On day 21, transport study was initiated by careful removal of the culture medium from AP and BL sides. […] Upon completion of all permeation experiments, TEER values were measured to ensure that cell monolayer integrity and viability had not been adversely affected by experimental conditions.
The cell survival rate (%) was calculated using the equation survival rate= A/A0 × 100, wherein A was the average absorbance value of treatment group; A0 was the average absorbance value of the blank control group. […]

Papp at 180 min: 6.92 nm/s
Structure (SMILES): CC(C)NCC(O)COc1ccc(CC(N)=O)cc1 (stereo not shown) [atenolol, reference compound]
